Data on seven molecules can be found in publication PMC13463607.

By UniProt entry, the sequences of proteins in these tests, tags left out.
UniProt Q96GD4: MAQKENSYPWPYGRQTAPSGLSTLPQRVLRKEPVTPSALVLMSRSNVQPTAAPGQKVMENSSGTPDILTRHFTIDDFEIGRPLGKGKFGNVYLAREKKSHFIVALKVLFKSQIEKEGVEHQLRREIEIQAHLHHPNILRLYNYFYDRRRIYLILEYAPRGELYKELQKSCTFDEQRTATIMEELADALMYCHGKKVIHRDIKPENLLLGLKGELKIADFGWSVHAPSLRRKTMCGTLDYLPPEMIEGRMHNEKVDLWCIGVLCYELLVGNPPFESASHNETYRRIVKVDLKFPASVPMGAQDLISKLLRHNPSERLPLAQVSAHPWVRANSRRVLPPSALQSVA
UniProt P62328: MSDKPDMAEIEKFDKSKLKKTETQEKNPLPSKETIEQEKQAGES
UniProt Q13177: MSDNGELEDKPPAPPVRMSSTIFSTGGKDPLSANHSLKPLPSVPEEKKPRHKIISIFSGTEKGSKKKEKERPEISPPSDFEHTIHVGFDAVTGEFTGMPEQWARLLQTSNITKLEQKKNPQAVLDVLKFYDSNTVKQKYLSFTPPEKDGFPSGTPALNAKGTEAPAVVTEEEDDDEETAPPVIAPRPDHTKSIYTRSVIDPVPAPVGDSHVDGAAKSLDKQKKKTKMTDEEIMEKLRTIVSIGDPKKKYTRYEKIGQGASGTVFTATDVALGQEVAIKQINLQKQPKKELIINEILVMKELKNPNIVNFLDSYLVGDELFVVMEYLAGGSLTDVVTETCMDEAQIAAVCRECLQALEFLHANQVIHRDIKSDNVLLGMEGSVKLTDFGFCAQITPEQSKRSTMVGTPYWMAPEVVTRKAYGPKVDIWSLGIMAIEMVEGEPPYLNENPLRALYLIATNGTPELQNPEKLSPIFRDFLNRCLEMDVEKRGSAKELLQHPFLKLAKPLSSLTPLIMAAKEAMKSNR
UniProt Q9Y2X7: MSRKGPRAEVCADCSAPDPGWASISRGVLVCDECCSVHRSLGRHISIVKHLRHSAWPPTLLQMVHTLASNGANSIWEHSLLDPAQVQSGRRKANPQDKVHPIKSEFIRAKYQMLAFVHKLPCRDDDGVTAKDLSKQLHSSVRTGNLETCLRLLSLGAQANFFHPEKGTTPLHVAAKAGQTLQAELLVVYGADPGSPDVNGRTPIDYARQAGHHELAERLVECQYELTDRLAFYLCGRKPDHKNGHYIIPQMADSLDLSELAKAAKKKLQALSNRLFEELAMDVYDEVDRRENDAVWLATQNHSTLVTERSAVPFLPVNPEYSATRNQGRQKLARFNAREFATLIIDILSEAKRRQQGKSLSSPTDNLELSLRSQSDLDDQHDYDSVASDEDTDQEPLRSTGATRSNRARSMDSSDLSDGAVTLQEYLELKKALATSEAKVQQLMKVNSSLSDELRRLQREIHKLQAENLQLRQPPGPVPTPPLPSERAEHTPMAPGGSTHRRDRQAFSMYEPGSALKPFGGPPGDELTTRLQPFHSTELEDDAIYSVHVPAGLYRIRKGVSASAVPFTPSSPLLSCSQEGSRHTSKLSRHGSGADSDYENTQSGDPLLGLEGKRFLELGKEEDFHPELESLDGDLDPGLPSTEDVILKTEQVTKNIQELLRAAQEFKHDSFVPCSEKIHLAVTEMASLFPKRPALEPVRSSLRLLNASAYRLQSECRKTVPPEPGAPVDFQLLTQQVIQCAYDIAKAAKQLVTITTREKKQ
UniProt Q13418: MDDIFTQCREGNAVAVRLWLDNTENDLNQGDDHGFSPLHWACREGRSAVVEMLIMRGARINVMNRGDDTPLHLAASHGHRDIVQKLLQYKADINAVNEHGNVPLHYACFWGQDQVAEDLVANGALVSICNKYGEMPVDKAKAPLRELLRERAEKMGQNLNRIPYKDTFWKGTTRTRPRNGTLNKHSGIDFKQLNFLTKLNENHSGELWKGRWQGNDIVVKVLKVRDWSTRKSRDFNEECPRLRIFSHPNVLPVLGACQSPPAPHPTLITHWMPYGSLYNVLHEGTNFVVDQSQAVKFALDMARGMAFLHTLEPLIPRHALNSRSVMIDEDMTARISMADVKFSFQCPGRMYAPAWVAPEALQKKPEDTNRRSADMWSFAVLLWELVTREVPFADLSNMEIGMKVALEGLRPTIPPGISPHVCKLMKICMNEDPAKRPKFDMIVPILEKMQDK
UniProt Q14155: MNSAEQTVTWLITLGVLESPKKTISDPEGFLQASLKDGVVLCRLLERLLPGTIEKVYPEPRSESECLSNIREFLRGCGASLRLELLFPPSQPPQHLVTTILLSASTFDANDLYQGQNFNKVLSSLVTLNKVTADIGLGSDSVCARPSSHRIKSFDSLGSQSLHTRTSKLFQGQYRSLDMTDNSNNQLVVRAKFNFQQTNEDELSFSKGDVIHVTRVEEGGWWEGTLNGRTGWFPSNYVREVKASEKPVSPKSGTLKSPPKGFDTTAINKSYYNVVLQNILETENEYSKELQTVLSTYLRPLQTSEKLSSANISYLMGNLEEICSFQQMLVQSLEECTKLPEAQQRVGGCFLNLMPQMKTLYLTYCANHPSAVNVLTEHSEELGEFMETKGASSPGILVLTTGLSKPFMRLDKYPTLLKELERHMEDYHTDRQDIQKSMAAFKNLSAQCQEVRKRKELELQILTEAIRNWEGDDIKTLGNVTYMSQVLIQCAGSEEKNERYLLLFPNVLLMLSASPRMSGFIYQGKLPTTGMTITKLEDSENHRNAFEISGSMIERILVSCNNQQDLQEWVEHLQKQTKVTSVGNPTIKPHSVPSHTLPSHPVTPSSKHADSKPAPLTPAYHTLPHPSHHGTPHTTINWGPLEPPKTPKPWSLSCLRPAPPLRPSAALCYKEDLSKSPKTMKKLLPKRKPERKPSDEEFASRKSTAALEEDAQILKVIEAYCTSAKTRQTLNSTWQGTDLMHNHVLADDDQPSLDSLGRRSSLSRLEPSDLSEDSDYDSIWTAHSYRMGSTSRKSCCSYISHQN
UniProt Q14247: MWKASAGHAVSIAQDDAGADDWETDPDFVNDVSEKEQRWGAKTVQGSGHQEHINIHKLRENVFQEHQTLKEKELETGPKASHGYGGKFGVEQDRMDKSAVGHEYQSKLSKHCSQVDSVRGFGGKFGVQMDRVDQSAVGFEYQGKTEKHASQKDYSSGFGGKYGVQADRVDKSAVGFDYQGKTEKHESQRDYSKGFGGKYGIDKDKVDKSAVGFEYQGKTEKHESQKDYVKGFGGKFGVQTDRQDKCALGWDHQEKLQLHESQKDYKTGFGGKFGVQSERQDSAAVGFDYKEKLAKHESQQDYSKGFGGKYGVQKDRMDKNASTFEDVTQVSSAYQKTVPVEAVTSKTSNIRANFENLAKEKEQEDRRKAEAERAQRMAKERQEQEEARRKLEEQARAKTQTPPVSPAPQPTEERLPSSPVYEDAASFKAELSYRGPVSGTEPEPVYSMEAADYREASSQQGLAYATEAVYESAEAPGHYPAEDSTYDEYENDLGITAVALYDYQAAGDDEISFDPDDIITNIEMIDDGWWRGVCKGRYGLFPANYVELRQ

These are yes or no findings as the source states them, for the method shown. Binding seen in cells or lysates may run through a third protein. Here binding means that the protein was enriched with, or labelled near, the bait; the list need not be complete. For some assays here: Where a sequence is shown, tags or fusion partners need not be part of it.

In assay [1] the target is T1, TurboID LMW-PTP fusion protein (human) (UniProt P24666).
T1 sequence: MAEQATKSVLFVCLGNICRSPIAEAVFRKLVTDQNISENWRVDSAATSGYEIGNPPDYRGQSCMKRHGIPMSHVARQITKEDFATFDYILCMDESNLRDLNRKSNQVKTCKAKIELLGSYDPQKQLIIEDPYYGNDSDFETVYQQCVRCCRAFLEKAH
In words: proximity labelling; TurboID fusions of aurora B or LMW-PTP lentivirally expressed in GBM43 cells; 10 μM biotin, 37°C, 10 minutes; RIPA lysates; streptavidin magnetic beads, 1 hour at room temperature; mass spectrometry; greater than 2-fold more abundance versus control TurboID cytochrome P450 (aa 1-29) fusion.

Assay [2] has as its target TurboID aurora B fusion protein (human) (UniProt Q96GD4). The assay is described as above.

On to thymosin-β4 (from UniProt P62328 1-44), for which the binding entry in assay [1] and in assay [2] was “binds” each time.
In the case of “p21 protein-activated kinase 2 (from UniProt Q13177 1-524)”, the binding entry in assay [1] and in assay [2] was “binds” in each case.
As for “G protein–coupled receptor kinase interactor-1 (from UniProt Q9Y2X7 1-761)”, the binding result in assay [1] and in assay [2] was “binds” each time.
For “integrin-linked kinase (from UniProt Q13418 1-452)”, the binding entry in assay [1] and in assay [2] was “binds” each time.
For the molecule “rho guanine nucleotide exchange factor 7 (from UniProt Q14155 1-803)”, the binding result in assay [1] and in assay [2] was “binds” each time.
Consider cortactin (from UniProt Q14247 1-550), for which the binding entry in assay [1] and in assay [2] was “binds” each time.

B1: Rac/Cdc42 guanine nucleotide exchange factor 6 (protein, UniProt Q15052 1-776)
chain: MNPEEQIVTWLISLGVLESPKKTICDPEEFLKSSLKNGVVLCKLINRLMPGSVEKFCLDPQTEADCINNINDFLKGCATLQVEIFDPDDLYSGVNFSKVLSTLLAVNKATEDQLSERPCGRSSSLSAANTSQTNPQGAVSSTVSGLQRQSKTVEMTENGSHQLIVKARFNFKQTNEDELSVCKGDIIYVTRVEEGGWWEGTLNGRTGWFPSNYVREIKSSERPLSPKAVKGFETAPLTKNYYTVVLQNILDTEKEYAKELQSLLVTYLRPLQSNNNLSTVEVTSLLGNFEEVCTFQQTLCQALEECSKFPENQHKVGGCLLSLMPHFKSMYLAYCANHPSAVNVLTQHSDELEQFMENQGASSPGILILTTNLSKPFMRLEKYVTLLQELERHMEDTHPDHQDILKAIVAFKTLMGQCQDLRKRKQLELQILSEPIQAWEGEDIKNLGNVIFMSQVMVQYGACEEKEERYLMLFSNVLIMLSASPRMSGFIYQGKIPIAGTVVTRLDEIEGNDCTFEITGNTVERIVVHCNNNQDFQEWLEQLNRLIRGPASCSSLSKTSSSSCSAHSSFSSTGQPRGPLEPPQIIKPWSLSCLRPAPPLRPSAALGYKERMSYILKESSKSPKTMKKFLHKRKTERKPSEEEYVIRKSTAALEEDAQILKVIEAYCTSANFQQGHGSSTRKDSIPQVLLPEEEKLIIEETRSNGQTIMEEKSLVDTVYALKDEVRELKQENKRMKQCLEEELKSRRDLEKLVRRLLKQTDECIRGESSSKTSILP
As for B1, the binding result in assay [1] and in assay [2] was “binds” in each case.
